No constants are given. Whether binding was seen depends on the method and setting. In cells and extracts the contact can be indirect. Some entries that bind do so weakly or less than the wild type.

Protein sequences, listed by entry. Tags and fused reporters are not part of them.
UniProt Q86U44: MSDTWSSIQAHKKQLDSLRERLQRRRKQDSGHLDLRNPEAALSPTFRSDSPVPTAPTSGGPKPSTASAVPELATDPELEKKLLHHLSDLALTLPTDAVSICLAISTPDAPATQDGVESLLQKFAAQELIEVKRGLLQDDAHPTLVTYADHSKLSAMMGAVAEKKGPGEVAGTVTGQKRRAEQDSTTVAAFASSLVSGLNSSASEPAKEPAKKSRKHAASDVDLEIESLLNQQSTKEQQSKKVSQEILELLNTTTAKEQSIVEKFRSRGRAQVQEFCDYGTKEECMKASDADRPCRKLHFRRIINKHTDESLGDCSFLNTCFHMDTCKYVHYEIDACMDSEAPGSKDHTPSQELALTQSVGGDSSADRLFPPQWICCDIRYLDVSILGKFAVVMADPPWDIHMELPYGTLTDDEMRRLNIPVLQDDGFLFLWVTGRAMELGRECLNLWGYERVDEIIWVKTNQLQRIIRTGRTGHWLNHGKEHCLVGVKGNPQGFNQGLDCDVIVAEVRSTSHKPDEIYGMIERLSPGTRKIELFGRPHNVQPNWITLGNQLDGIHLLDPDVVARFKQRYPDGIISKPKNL
UniProt P89522: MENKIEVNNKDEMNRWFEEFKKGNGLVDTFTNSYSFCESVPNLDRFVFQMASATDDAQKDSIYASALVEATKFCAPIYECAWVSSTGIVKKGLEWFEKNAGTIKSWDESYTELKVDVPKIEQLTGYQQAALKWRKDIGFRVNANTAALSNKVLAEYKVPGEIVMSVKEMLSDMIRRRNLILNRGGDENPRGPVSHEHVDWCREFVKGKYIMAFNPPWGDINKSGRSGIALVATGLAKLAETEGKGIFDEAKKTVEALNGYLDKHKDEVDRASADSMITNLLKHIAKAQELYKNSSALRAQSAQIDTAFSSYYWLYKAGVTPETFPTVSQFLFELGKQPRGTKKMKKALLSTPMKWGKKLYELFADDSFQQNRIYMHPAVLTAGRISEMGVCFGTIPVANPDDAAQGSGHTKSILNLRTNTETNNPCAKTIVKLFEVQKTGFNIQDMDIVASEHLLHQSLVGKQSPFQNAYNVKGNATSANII
UniProt Q05323: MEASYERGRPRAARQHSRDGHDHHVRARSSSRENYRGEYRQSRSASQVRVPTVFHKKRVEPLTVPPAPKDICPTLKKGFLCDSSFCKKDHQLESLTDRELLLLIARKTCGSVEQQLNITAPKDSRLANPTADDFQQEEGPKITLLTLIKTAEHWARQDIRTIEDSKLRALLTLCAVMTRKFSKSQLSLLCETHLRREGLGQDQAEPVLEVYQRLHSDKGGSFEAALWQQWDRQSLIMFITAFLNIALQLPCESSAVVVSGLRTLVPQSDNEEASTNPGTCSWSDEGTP
UniProt Q05127: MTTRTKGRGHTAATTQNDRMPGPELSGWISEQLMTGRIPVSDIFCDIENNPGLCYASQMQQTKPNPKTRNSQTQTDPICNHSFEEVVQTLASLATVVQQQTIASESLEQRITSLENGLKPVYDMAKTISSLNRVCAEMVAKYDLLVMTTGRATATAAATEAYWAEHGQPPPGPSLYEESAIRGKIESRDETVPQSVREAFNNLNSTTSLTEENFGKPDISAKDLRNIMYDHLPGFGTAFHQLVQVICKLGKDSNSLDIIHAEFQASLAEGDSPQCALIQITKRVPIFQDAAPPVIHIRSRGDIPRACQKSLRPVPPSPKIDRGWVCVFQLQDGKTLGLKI

The target of this assay is flagHA-METTL3 (UniProt Q86U44). Briefly: co-IP.
As for “CCHFV nucleoprotein (N) (from UniProt P89522 1-482)”, the binding entry is recorded as “binds”.

For the substance EBOV VP30 (from UniProt Q05323 1-288), the binding result is reported as “binds”.

In the case of EBOV VP35 (from UniProt Q05127 1-340), the binding result is reported as “no binding”.

Source of the values: publication PMC10286672.
